Paper PMC7819943, “Rice protein-binding microarrays: a tool to detect cis-acting elements near promoter regions in rice”
Some of the results follow.

The sequences below were run against T1, OsSMF1 (Oryza sativa, UniProt Q6ZLB0 1-436) (assay: protein-binding microarray (RPBM); PBS, 2% BSA, 51.3 ng/ul salmon testes DNA, 50 uM zinc acetate, 200 nM TF, 25 C, 1 h; high values mean tight binding). Settings: protein: recombinant; tags: N-terminal polyhistidine and DsRed monomer fusion (pET32a); chain copies: 2; label: CyDye5-dUTP incorporated in the synthesized complementary strand; 3' TTTTT single-stranded linker to array surface; dsDNA, one strand shown.
T1 sequence: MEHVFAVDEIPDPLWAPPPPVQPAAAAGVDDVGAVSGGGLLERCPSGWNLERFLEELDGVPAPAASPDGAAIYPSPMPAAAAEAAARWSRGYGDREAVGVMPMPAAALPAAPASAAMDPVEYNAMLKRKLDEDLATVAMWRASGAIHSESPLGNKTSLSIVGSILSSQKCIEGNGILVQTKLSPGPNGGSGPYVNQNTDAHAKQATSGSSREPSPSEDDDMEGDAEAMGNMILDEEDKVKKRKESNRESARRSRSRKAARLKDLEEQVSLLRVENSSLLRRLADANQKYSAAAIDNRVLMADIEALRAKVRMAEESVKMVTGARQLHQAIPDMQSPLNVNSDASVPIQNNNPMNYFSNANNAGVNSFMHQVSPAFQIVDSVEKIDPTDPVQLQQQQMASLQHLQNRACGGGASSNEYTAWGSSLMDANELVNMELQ
In short: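 The binding signal is fluorescence intensity per feature, in arbitrary units, read on an Axon 4000B scanner. Polyhistidine- and DsRed-tagged transcription factors (N-terminal fusions) from E. coli BL21-CodonPlus were purified on Ni–NTA and applied at 200 nM for 1 h at 25 °C to a double-stranded, BSA-blocked custom Agilent array in buffer with 50 µM zinc acetate.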
For “TGCCACCGTGGCGGCCGGGCCGATCCCCTAGCTGACGTGGCGGAGTCACCTAGTGCAG”, the binding signal was 41900 fluorescence intensity (a.u.).
“TGAGTTCATGTGCCGGTTCCAGCTCAACCTAGGCCAGAGGCGGAGTCACCTAGTGCAG” was tested, and the binding signal was 4120 fluorescence intensity (a.u.).
With “AAATATCTTTTCACATGTGGACTTATTAAGGAACCACTTCCGGAGTCACCTAGTGCAG” the binding signal was 12600 fluorescence intensity (a.u.).
With “GTAAAATCATATATAGAAAGTAGATAATTTTGTATGGGTTCGGAGTCACCTAGTGCAG” the binding signal was 10500 fluorescence intensity (a.u.).
“ATGCTACGTTTGCTATCCTCTCCCACGTACTCCGTAGAGTCGGAGTCACCTAGTGCAG” was tested, and the binding signal was 3600 fluorescence intensity (a.u.).
For “AAATCAACCATCTTTCCTCAAACGTGTTCATTATCTAAACCGGAGTCACCTAGTGCAG”, the binding signal was 3960 fluorescence intensity (a.u.).
“CCCACACACAAAAGCCGCAAAGGACGATGCCACACACACTCGGAGTCACCTAGTGCAG” was tested, and the binding signal was 3740 fluorescence intensity (a.u.).
With “ATATCGATATACACGTTATGATACTAACAAACAGATTTTCCGGAGTCACCTAGTGCAG” the binding signal was 3600 fluorescence intensity (a.u.).
For “CGGCCCCTCTCGCTGCCACGTTTTAAGCATCCAAACTGCGCGGAGTCACCTAGTGCAG”, the binding signal was 5160 fluorescence intensity (a.u.).
With “CCTATAAACACTCGTAAGCTGCCATGTGACACTCCTACAACGGAGTCACCTAGTGCAG” the binding signal was 3840 fluorescence intensity (a.u.).
In the case of “TCTAGATGCACTTATAGAATGACATATCAGTGTTAGTAAGCGGAGTCACCTAGTGCAG”, the binding signal is reported as 3330 fluorescence intensity (a.u.).
With “GGAGCACGCCACATGTCAGCACCCACGACCACGGCCACGCCGGAGTCACCTAGTGCAG” the binding signal was 5760 fluorescence intensity (a.u.).
With “AATTGTCCCTGATTGACACCTCTTACTTGACCCTTCTTTCCGGAGTCACCTAGTGCAG” the binding signal was 3490 fluorescence intensity (a.u.).
With “CCACATGTACTAGTGGGCCGGCTACCAGCCCACGTGCCACCGGAGTCACCTAGTGCAG” the binding signal was 4300 fluorescence intensity (a.u.).
With “TTACACATATAGATCTGTCATCTTGGTTTAATGATTCGTACGGAGTCACCTAGTGCAG” the binding signal was 5340 fluorescence intensity (a.u.).
With “GACTTCTCGTCCTCCCTGTTGCAGAGGCTTCTCCGGCGAGCGGAGTCACCTAGTGCAG” the binding signal was 4780 fluorescence intensity (a.u.).
For “ATAATGGAGGCGGATAACAGATGACGACACGGCCGGAACGCGGAGTCACCTAGTGCAG”, the binding signal was 4560 fluorescence intensity (a.u.).
“TATATGTACGTAGCCCATGACGCGCACGCCTTCTTGGTGACGGAGTCACCTAGTGCAG” was tested, and the binding signal was 3600 fluorescence intensity (a.u.).
With “CTTACTTACATCTGCATCATTCAGTCTACTAACCACAATACGGAGTCACCTAGTGCAG” the binding signal was 3280 fluorescence intensity (a.u.).
With “CCATCGCTTCGCCATGGCGACCGGCTTGCCGGAGGAAGAGCGGAGTCACCTAGTGCAG” the binding signal was 5610 fluorescence intensity (a.u.).
“AGGTATATGGTGTACCTGCGTCATCTGTTGTTCATGCTGACGGAGTCACCTAGTGCAG” was tested, and the binding signal was 6250 fluorescence intensity (a.u.).
With “CTACCGAACACTGCCATCCAGCAGACCAATTTGCAACGATCGGAGTCACCTAGTGCAG” the binding signal was 18300 fluorescence intensity (a.u.).
For “TAGCTAATCCTCTTCAACACGCAGCCACCGTGTCGACGCCCGGAGTCACCTAGTGCAG”, the binding signal was 3550 fluorescence intensity (a.u.).
For “ATGCACTTCCTGTCACGGTCCGGCCCATCCTAGCTGCCGGCGGAGTCACCTAGTGCAG”, the binding signal was 3290 fluorescence intensity (a.u.).
“CGAAACGATAGGGCCAACAATGACACCTACACTTCTTCCGCGGAGTCACCTAGTGCAG” was tested, and the binding signal was 5100 fluorescence intensity (a.u.).
With “CGCGGCCATCGCAGTCGCCCAGTCATTGTCCCACCGCCTCCGGAGTCACCTAGTGCAG” the binding signal was 4320 fluorescence intensity (a.u.).
In the case of “GCAGTTCTTTCGATTCTACTTGGCGACGACATCCATGTGTCGGAGTCACCTAGTGCAG”, the binding signal is reported as 3240 fluorescence intensity (a.u.).
For “TTATTCGATATATGATGTGTAAGCTACTTGATGCAAGCCACGGAGTCACCTAGTGCAG”, the binding signal was 3640 fluorescence intensity (a.u.).
For “ATATAAGATGTAACTATTACGATGTTTCATGATACAAGTACGGAGTCACCTAGTGCAG”, the binding signal was 15000 fluorescence intensity (a.u.).
With “GAGATCGTCTATTTCTACCAAGAGGAGCCGAGCCGCTGCCCGGAGTCACCTAGTGCAG” the binding signal was 7740 fluorescence intensity (a.u.).
In the case of “TGCCGCGTCGTCGCTCGTCGTCACCGATCGTGCGCACTCCCGGAGTCACCTAGTGCAG”, the binding signal is reported as 5580 fluorescence intensity (a.u.).
For “AGCCAACGCCGCGGGATACACGCCACGTCAGAGCATCCGCCGGAGTCACCTAGTGCAG”, the binding signal was 18000 fluorescence intensity (a.u.).
With “TCCAGGTTCCAGCACCATCAGCTGACAAAGTGTACAAGAACGGAGTCACCTAGTGCAG” the binding signal was 3310 fluorescence intensity (a.u.).
For “TAGGGGAGCCTCGACACGACGCCGCTGGCGTGGCGCGTCCCGGAGTCACCTAGTGCAG”, the binding signal was 9370 fluorescence intensity (a.u.).
In the case of “AATGAAAAGAAAATCTTACCAATGCTGCGATGCTGACACCCGGAGTCACCTAGTGCAG”, the binding signal is reported as 3580 fluorescence intensity (a.u.).
For “GGTCGTTTGTTCTTTTGTCTTGCCTATTATGCTCCGTCATCGGAGTCACCTAGTGCAG”, the binding signal was 4640 fluorescence intensity (a.u.).
“CACATCTCTAGACGGATCGGCCACGCTACATCCATCTTAGCGGAGTCACCTAGTGCAG” was tested, and the binding signal was 3980 fluorescence intensity (a.u.).
“TTTCCGTCTGACCAGCGAGCCCGTCATCCGTCTTTGCCGCCGGAGTCACCTAGTGCAG” was tested, and the binding signal was 4250 fluorescence intensity (a.u.).
“TATGAGTTGCATATTTTAAGTGGCAACTGTTAATCTCAGCCGGAGTCACCTAGTGCAG” was tested, and the binding signal was 11100 fluorescence intensity (a.u.).
For “GGGAGGATGGCCCACACGTCAGTGATAGAGGGTCCGTTCCCGGAGTCACCTAGTGCAG”, the binding signal was 6000 fluorescence intensity (a.u.).
With “AACGTGAACCTGTTGTCCCTCGTGGCAGCTACCCACGCCTCGGAGTCACCTAGTGCAG” the binding signal was 7260 fluorescence intensity (a.u.).
With “CTCGTGACGTGACGTGCTGGTGTCGTCCCCTCCTCATCTTCGGAGTCACCTAGTGCAG” the binding signal was 12700 fluorescence intensity (a.u.).
